Test results as given in the supplement of paper PMC10849652.
This is one part of the list.

Amino acid sequences for entries named in this document (tags omitted). A change or cut given only in a name is not applied to a line headed by its entry.
UniProt O43670: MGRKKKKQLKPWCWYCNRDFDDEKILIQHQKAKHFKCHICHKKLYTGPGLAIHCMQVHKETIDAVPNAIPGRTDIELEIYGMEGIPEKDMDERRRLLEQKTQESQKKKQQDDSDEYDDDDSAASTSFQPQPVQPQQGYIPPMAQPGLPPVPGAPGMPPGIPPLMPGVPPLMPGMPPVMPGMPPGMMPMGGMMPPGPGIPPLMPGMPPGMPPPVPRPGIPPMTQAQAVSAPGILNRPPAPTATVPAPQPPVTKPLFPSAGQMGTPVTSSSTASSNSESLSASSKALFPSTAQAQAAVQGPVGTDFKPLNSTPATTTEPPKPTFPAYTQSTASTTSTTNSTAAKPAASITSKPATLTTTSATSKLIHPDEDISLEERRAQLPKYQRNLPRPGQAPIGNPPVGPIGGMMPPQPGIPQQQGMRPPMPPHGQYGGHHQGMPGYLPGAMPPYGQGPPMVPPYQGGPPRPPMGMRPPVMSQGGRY
UniProt O43542: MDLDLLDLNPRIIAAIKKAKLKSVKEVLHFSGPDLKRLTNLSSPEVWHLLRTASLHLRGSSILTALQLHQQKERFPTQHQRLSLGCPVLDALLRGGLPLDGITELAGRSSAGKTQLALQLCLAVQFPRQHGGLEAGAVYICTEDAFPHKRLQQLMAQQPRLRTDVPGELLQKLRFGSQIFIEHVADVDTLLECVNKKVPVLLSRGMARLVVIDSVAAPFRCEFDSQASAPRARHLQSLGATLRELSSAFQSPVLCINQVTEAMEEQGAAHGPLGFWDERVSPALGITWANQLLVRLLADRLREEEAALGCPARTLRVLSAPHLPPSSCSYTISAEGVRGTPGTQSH
UniProt Q5BJH7: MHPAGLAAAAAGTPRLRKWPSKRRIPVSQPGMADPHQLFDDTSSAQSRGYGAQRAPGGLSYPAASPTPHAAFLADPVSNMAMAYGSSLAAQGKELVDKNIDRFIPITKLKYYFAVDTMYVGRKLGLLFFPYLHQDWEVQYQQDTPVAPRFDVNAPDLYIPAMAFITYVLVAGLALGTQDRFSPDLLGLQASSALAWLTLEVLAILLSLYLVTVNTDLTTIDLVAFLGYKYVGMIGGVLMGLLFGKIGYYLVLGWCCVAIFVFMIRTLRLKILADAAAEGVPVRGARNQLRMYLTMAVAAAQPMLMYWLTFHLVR
UniProt Q13426: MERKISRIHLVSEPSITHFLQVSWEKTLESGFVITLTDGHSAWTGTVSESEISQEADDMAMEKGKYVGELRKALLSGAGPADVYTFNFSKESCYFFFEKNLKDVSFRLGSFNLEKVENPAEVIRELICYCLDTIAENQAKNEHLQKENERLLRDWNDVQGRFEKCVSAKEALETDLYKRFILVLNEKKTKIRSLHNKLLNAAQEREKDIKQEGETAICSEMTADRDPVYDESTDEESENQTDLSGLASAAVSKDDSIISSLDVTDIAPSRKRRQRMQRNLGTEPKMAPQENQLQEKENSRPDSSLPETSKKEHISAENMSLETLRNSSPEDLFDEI
UniProt Q5T4F4: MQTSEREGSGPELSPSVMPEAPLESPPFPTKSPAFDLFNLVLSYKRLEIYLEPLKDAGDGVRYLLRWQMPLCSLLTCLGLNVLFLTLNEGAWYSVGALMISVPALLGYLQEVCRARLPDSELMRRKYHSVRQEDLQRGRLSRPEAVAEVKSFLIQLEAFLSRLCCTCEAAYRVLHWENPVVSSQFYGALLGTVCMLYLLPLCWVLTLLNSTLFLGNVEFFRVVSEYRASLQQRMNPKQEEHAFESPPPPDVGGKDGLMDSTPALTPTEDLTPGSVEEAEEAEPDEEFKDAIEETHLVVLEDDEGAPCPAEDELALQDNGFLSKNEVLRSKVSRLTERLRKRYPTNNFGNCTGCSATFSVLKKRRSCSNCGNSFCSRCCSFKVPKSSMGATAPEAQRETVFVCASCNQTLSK
UniProt Q5T200: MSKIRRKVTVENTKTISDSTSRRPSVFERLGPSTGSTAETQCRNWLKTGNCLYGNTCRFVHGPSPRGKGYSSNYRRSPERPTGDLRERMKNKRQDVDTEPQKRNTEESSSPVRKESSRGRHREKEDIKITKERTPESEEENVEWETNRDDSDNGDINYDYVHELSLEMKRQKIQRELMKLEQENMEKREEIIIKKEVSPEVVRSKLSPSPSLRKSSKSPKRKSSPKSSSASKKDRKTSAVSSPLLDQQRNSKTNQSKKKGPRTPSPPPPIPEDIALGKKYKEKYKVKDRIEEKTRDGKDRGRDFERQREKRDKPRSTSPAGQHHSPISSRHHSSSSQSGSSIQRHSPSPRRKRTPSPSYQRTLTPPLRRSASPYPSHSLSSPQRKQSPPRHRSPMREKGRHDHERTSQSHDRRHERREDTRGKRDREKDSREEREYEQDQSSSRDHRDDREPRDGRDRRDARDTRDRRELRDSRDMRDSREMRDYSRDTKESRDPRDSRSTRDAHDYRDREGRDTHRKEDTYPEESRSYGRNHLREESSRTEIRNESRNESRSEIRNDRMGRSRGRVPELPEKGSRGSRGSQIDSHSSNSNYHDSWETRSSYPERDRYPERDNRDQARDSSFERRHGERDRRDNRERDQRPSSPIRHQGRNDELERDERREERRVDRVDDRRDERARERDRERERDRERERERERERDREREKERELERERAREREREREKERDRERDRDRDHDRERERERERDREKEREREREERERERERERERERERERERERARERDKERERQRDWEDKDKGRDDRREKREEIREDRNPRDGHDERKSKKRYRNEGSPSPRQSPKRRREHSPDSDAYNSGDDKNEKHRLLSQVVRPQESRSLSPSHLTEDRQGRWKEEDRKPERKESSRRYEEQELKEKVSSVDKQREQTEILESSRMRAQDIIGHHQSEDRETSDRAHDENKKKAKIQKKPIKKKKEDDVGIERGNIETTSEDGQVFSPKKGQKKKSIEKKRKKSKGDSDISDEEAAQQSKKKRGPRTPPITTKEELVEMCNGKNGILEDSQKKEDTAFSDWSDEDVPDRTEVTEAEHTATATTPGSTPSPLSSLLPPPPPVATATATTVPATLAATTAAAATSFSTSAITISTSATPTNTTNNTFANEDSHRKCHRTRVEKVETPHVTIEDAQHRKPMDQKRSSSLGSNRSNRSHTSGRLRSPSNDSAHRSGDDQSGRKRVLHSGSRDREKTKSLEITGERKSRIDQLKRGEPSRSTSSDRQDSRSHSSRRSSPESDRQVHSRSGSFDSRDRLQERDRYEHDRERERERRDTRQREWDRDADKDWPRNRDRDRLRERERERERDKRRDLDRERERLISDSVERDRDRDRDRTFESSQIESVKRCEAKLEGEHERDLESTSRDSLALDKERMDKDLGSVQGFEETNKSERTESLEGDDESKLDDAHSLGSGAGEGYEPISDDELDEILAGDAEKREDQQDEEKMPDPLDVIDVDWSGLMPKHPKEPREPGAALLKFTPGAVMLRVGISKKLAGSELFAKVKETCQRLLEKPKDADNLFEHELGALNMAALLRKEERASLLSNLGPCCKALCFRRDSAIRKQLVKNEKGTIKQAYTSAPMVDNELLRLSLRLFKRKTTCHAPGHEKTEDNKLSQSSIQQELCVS
UniProt O95619, whole entry, looked up: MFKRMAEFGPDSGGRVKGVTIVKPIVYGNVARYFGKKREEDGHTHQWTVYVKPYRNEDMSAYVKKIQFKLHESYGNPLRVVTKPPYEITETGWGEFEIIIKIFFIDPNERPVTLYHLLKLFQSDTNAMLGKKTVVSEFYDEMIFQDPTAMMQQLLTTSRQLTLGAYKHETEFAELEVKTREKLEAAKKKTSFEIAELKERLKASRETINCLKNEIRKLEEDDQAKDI
UniProt Q7Z739: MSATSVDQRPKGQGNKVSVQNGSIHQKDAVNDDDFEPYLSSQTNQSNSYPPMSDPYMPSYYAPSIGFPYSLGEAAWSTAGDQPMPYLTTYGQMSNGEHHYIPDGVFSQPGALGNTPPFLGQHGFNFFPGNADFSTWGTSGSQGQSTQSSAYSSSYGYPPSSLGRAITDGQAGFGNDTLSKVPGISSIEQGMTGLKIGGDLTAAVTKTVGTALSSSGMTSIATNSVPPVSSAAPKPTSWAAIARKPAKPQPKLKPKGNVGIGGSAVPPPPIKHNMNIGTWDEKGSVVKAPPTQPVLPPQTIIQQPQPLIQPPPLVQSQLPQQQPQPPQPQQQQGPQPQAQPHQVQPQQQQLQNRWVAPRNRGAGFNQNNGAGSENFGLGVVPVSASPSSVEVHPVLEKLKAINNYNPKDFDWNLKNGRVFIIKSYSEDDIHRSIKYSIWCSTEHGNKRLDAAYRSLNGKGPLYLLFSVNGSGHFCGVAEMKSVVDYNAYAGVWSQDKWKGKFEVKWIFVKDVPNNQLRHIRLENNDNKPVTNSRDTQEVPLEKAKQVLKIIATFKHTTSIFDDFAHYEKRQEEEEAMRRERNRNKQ
UniProt Q9UPT8: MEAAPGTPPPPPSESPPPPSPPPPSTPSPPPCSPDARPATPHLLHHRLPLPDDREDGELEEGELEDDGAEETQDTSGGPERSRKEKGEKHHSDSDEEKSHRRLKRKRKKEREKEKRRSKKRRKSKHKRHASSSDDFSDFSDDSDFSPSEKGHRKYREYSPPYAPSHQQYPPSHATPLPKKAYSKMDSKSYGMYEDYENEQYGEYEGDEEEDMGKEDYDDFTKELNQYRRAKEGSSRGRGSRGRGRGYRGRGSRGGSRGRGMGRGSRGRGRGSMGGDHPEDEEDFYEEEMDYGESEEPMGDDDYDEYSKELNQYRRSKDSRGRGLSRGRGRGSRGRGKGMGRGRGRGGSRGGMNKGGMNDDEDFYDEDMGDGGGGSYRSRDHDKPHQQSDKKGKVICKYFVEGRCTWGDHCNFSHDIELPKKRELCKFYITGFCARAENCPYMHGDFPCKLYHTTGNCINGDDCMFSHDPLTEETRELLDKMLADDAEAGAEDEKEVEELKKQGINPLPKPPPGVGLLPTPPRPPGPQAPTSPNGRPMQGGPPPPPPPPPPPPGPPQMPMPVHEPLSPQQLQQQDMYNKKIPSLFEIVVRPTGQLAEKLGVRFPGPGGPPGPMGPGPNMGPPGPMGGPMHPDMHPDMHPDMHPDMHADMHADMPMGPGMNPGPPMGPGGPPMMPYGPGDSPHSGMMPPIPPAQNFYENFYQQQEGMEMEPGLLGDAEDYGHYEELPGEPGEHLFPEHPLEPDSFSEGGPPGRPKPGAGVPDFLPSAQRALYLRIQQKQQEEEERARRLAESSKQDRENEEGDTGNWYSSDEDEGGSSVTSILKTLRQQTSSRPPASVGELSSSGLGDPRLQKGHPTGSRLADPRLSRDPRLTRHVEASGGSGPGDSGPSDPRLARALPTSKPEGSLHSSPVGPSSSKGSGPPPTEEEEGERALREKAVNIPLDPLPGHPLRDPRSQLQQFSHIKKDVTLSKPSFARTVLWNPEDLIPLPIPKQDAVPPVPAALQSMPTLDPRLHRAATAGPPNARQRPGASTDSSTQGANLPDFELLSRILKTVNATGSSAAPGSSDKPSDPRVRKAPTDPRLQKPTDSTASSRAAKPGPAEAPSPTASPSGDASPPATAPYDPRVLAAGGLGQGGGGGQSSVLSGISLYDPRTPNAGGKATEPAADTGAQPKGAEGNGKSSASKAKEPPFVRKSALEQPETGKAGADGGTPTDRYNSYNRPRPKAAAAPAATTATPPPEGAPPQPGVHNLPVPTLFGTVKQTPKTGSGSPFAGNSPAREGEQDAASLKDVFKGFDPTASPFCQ
UniProt P62258: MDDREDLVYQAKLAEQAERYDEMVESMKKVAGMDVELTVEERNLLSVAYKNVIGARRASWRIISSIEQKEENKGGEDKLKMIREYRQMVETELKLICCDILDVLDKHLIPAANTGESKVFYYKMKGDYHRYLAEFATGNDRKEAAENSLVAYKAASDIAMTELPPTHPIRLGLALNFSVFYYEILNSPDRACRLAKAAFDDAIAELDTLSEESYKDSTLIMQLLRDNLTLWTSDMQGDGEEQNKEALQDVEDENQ
UniProt O15498: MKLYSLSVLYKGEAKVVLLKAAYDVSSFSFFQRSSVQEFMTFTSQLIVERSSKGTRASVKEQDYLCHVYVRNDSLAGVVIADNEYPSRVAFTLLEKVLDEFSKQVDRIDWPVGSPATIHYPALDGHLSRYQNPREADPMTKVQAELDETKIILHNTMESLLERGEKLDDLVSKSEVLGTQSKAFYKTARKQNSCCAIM
UniProt Q96K21: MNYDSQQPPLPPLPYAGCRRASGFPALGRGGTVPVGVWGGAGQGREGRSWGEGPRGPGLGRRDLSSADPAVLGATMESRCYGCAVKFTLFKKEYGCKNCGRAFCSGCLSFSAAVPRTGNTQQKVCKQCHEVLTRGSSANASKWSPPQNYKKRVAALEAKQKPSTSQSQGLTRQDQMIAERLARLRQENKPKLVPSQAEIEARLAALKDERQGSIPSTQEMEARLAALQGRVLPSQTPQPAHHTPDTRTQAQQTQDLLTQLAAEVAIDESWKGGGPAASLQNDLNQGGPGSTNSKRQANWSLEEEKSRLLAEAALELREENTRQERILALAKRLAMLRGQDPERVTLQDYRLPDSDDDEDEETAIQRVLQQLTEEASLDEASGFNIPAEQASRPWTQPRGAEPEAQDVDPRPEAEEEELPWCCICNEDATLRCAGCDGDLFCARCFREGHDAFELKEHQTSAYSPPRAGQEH

Compound: c1cn2cc(-c3ccc4cn[nH]c4c3)nc(Nc3ccc(N4CCOCC4)cc3)c2n1 [entospletinib]
Assay: log2 fold change, soluble protein after heating vs DMSO (PISA); higher = thermal stabilisation; K562 cells, 10 uM, 30 min; active = over 0.2 and 3.5 SD of the protein, either way, in both replicates (recomputed)
Method in brief: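 Soluble protein was quantified by TMTpro 16plex LC-MS/MS after channel sums were equalised. It was obtained as the supernatant after 21,000xg for 90 min from pooled aliquots of K562 cells (2×10^6 cells/mL, 10 μM compound, 30 min) heated for 3 min across 48°C-58°C and extracted in PBS with 0.5% NP-40 at 4°C. Thermal stability values are relative to control samples and come from duplicates. They are given as log2 fold changes.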

log2 fold change, inactive:
YIPF1 (UniProt Q9Y548) -0.014, ZC3H7B (UniProt Q9UGR2) 0.071, ZC3HAV1 (UniProt Q7Z2W4) 0.252, YDJC (UniProt A8MPS7) 0.078, ZNF207 isoform 2 (UniProt O43670) -0.155, ZFYVE16 (UniProt Q7Z3T8) 0.03, ZBTB3 (UniProt Q9H5J0) 0.135, ZNF24 (UniProt P17028) 0.072, ZFPM1 (UniProt Q8IX07) 0.04, XRCC3 (UniProt O43542) -0.156, YIF1B (UniProt Q5BJH7) 0.042, XRCC4 (UniProt Q13426) -0.031, ZFYVE27 isoform 2 (UniProt Q5T4F4) 0.084, ZC3H13 (UniProt Q5T200) 0.111, ZMYND8 isoform 19 (UniProt Q9ULU4) 0.226, ZC3H14 (UniProt Q6PJT7) -0.046, ZNF106 (UniProt Q9H2Y7) 0.031, ZG16B (UniProt Q96DA0) -0.313, YEATS4 (UniProt O95619) 0.028, YTHDC2 (UniProt Q9H6S0) 0.359, ZFAND3 (UniProt Q9H8U3) 0.003, ZFR (UniProt Q96KR1) -0.031, YRDC (UniProt Q86U90) -0.02, ZFYVE21 isoform 2 (UniProt Q9BQ24) 0.136, ZCCHC3 (UniProt Q9NUD5) 0.15, YWHAG (UniProt P61981) 0.001, YTHDF3 (UniProt Q7Z739) 0.027, ZBTB24 (UniProt O43167) -0.084, ZFAND1 (UniProt Q8TCF1) -0.058, ZFC3H1 (UniProt O60293) 0.101, ZMIZ2 (UniProt Q8NF64) 0.019, ZC3H4 (UniProt Q9UPT8) 0.094, YWHAE (UniProt P62258) 0.004, XRN1 (UniProt Q8IZH2) 0.236, ZDHHC16 (UniProt Q969W1) 0.132, YME1L1 (UniProt Q96TA2) -0.048, YKT6 (UniProt O15498) 0.028, ZEB1 isoform 2 (UniProt P37275) -0.106, ZNF207 isoform 4 (UniProt O43670) -0.045, ZFYVE19 (UniProt Q96K21) 0.013
